± gives the standard deviation of the averaged measurements. Only a part is listed here, and it is no random draw.
Compound: Nc1ncnc2c1ncn2[C@@H]1O[C@H](COP(=O)(O)OP(=O)(O)NP(=O)(O)O)[C@@H](O)[C@H]1O [adenylyl imidodiphosphate]
Test: NP40-soluble protein abundance relative to vehicle (solubility fold change) (ratio); higher = more soluble protein in presence of AMP-PNP
Procedure, shortened: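 Crude Jurkat lysate, prepared by Dounce homogenisation, was exposed to eight concentrations from 0.1 to 10 mM for 10 min at room temperature and then 3 min at 37 °C. Solubilisation used 0.8% NP40 with benzonase for 60 min at 4 °C, followed by ultracentrifugation and TMT labelling of the supernatant for LC-MS/MS. After vsn normalisation of intensities, each value is the fold change against the detergent-processed vehicle within each replicate, across three independent experiments.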

Chains of the proteins cited; added tags and fusions are not shown. Lines headed by an entry give the natural chain unless they say otherwise; changes in a name come on top.
UniProt P84101: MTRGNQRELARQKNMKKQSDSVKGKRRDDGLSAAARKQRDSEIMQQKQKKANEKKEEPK
UniProt Q70CQ3: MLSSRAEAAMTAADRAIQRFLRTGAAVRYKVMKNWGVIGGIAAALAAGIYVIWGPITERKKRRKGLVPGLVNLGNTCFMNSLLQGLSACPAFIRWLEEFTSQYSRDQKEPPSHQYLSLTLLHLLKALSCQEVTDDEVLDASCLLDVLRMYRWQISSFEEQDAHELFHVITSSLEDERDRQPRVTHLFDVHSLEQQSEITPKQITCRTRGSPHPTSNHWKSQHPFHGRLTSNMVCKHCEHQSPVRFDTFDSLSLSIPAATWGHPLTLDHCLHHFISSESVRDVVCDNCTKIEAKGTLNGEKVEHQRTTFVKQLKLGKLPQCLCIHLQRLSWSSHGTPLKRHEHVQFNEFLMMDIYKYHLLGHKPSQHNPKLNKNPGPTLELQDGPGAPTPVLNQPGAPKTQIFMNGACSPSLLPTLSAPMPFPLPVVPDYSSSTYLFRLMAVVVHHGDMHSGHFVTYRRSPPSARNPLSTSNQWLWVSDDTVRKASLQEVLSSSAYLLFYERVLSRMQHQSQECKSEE
UniProt Q96A25: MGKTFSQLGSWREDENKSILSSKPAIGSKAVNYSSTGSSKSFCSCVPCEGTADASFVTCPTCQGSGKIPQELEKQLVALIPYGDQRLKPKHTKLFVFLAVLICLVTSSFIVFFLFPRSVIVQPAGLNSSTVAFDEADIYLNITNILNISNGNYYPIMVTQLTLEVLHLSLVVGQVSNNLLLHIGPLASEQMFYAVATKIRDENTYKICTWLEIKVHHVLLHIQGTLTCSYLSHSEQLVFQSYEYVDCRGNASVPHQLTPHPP
UniProt O00541, whole entry: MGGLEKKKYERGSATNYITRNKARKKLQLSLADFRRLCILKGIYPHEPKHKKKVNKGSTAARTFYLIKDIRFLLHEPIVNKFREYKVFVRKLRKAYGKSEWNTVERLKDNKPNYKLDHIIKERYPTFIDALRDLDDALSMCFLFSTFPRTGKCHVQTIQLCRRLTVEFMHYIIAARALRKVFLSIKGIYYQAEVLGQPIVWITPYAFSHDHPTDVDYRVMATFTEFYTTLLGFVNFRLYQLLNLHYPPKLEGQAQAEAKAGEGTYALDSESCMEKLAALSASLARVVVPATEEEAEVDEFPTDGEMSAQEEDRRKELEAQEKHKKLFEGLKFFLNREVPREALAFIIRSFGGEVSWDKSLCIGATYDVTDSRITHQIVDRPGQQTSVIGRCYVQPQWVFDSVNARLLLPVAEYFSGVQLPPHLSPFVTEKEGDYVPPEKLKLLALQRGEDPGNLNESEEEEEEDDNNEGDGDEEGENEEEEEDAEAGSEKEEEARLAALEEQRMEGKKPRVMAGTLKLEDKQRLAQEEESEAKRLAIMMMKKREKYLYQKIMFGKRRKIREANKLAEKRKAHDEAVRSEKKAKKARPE
UniProt P29372, whole entry: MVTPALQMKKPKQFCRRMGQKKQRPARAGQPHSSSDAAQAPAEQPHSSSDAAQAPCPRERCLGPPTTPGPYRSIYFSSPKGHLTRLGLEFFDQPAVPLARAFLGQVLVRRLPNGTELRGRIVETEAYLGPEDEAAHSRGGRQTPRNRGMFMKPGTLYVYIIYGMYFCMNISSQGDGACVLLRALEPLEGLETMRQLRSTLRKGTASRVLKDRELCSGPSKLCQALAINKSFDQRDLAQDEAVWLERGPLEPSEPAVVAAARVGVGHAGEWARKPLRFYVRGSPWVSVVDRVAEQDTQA
UniProt Q9UDY4: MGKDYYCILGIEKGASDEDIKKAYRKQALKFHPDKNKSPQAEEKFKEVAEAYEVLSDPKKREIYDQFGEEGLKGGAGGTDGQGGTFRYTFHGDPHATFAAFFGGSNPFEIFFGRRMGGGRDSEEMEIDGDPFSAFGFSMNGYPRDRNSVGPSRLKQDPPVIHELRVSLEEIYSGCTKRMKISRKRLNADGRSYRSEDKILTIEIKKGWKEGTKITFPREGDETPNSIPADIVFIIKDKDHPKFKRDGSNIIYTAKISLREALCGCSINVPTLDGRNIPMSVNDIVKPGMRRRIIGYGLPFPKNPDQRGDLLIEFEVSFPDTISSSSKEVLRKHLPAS
UniProt Q99755: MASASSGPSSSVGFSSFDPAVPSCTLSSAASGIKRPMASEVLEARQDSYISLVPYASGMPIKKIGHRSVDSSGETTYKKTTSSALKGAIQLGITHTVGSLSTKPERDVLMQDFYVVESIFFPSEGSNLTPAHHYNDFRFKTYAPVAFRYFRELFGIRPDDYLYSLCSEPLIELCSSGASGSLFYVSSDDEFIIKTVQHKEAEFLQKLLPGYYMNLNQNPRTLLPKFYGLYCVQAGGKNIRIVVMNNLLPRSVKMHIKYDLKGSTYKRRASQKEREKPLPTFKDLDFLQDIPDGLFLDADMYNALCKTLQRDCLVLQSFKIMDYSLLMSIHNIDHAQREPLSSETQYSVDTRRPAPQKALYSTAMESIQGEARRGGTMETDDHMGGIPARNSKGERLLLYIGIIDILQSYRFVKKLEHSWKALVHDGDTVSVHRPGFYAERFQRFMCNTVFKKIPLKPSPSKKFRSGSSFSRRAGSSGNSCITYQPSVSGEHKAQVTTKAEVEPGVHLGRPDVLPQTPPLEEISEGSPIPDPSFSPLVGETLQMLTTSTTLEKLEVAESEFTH
UniProt Q53HC9: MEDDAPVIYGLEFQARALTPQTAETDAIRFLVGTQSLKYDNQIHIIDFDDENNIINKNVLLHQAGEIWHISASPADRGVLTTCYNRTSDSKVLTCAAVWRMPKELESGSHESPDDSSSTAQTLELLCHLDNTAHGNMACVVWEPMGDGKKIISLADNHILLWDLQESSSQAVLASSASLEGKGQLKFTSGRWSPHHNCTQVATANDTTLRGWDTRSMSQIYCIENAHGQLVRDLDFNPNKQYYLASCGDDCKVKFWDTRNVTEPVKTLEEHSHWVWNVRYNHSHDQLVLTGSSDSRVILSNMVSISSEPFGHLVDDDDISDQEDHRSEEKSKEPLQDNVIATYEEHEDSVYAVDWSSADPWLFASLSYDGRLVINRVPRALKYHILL
UniProt P05107, whole entry: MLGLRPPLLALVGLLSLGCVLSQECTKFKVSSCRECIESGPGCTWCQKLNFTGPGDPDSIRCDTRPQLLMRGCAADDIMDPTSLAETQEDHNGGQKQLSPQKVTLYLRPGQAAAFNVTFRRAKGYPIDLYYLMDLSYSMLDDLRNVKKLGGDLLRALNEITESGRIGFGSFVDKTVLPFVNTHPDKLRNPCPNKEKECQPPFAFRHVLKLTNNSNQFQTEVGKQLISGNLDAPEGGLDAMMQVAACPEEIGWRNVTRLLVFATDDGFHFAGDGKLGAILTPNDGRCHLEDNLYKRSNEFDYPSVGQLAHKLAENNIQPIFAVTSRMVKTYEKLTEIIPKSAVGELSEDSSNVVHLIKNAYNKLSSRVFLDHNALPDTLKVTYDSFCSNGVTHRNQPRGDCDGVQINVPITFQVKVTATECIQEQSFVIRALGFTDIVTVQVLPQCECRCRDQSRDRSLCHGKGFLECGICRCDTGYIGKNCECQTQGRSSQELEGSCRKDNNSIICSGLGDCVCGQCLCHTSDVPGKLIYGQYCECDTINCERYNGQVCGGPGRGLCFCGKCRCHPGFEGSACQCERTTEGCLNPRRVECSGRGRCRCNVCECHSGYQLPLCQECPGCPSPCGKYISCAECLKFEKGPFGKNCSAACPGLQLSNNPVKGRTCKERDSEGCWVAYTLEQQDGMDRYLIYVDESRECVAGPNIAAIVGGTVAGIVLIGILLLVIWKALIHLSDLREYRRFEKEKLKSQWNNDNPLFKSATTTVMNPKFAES
UniProt Q9Y262, whole entry: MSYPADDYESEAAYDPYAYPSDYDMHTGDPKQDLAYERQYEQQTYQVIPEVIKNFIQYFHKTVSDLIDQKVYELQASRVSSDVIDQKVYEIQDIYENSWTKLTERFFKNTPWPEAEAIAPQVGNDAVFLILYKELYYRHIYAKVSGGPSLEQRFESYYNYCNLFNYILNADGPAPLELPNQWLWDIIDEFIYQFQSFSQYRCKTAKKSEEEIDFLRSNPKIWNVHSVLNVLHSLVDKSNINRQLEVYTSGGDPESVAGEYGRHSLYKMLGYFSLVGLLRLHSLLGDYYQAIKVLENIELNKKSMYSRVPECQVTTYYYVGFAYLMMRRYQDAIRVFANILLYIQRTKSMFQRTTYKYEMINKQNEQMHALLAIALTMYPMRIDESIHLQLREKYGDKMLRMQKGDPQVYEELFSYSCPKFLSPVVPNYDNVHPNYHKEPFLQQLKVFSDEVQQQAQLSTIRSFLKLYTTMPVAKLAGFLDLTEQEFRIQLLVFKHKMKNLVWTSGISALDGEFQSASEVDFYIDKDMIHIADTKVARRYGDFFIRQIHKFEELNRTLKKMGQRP
UniProt Q16563: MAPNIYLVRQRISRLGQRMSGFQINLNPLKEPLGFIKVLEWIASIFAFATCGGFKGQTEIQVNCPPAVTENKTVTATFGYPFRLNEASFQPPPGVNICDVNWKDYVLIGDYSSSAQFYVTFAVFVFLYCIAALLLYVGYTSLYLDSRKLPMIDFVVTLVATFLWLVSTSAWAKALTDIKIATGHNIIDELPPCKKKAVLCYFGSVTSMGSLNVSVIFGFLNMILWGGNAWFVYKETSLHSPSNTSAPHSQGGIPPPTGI
UniProt Q13098: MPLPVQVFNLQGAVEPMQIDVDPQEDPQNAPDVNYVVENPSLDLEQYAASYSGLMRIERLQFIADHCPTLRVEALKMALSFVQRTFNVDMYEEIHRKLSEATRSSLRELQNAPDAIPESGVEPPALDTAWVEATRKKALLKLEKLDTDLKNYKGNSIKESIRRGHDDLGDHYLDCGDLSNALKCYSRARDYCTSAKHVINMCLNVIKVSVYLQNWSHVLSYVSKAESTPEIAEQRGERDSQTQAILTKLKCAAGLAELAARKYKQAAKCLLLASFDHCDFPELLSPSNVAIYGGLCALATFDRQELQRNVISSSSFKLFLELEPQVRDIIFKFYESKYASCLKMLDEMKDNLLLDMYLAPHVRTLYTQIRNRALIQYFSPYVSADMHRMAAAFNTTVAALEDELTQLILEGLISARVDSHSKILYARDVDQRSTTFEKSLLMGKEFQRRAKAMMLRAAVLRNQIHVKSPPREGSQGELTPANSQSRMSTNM
UniProt Q5TEU4: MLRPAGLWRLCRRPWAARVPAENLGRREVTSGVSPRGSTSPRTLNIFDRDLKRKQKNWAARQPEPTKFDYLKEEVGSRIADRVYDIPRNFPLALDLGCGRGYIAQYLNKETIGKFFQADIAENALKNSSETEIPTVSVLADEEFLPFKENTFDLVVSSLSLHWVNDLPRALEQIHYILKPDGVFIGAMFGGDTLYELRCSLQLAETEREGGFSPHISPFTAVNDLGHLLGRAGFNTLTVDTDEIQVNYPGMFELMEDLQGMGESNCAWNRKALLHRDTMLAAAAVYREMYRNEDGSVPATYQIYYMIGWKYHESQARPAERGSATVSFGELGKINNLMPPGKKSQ
UniProt Q96GF1: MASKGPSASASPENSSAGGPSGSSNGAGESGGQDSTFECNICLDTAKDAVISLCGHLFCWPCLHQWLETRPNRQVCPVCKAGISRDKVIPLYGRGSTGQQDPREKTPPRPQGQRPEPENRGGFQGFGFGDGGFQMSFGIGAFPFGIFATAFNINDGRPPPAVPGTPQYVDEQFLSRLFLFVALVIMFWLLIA
UniProt Q8NEB9, whole entry: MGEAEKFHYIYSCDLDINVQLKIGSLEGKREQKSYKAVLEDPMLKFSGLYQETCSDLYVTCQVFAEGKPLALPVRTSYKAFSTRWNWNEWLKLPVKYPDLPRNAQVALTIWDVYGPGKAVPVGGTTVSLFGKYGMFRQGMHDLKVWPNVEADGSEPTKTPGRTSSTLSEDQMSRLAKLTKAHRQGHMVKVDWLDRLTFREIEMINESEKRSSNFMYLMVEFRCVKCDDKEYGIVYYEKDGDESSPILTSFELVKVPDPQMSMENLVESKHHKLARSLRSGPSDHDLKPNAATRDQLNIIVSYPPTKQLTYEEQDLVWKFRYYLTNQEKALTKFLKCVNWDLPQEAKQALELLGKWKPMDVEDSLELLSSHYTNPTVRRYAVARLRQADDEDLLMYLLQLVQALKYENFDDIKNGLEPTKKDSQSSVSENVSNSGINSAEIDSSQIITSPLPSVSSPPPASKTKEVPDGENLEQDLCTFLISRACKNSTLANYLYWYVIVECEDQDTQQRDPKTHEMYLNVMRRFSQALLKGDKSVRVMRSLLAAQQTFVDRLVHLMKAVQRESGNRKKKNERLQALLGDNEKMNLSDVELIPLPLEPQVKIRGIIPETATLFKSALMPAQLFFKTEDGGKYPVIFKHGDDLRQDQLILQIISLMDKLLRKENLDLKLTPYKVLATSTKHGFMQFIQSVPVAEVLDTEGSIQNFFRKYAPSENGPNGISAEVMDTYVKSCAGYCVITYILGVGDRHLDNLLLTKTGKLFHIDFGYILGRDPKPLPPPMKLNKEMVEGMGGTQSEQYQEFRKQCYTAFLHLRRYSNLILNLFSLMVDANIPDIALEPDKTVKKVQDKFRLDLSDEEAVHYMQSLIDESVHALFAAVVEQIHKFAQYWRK

| Target | NP40-soluble protein abundance (concentration: 1mM) | NP40-soluble protein abundance (concentration: 2mM) | NP40-soluble protein abundance (concentration: 4mM) | NP40-soluble protein abundance (concentration: 6mM) | NP40-soluble protein abundance (concentration: 8mM) | NP40-soluble protein abundance (concentration: 10mM) |
| --- | --- | --- | --- | --- | --- | --- |
| B8ZZY7 and related entries (UniProt P84101) | 1.02 ± 0.053 | 1.05 ± 0.041 | 0.973 ± 0.035 | 0.929 ± 0.061 | 0.843 ± 0.046 | 0.954 ± 0.051 |
| B3KUS5 and related entries (UniProt Q70CQ3) | 0.966 ± 0.032 | 0.944 ± 0.059 | 0.97 ± 0.011 | 0.965 ± 0.026 | 0.972 ± 0.047 | 0.952 ± 0.056 |
| B7Z779 and related entries (UniProt Q96A25) | 1.008 ± 0.0063 | 0.994 ± 0.038 | 0.986 ± 0.036 | 1.02 ± 0.022 | 1.01 ± 0.063 | 1.02 ± 0.045 |
| D6RA71 and related entries (UniProt P78317) | 0.978 ± 0.021 | 1 ± 0.031 | 1.03 ± 0.044 | 0.997 ± 0.035 | 0.979 ± 0.048 | 0.996 ± 0.04 |
| B5MCF9 and related entries (UniProt O00541) | 1.04 ± 0.011 | 1.02 ± 0.026 | 0.996 ± 0.015 | 0.999 ± 0.019 | 0.965 ± 0.033 | 1 ± 0.021 |
| UniProt A4D161 and related entries | 0.998 ± 0.025 | 1.01 ± 0.019 | 1.03 ± 0.025 | 1.02 ± 0.023 | 1 ± 0.018 | 1 ± 0.039 |
| A2IDA3 and related entries (UniProt P29372) | 1.05 ± 0.035 | 1.04 ± 0.011 | 1.09 ± 0.036 | 1.14 ± 0.038 | 1.14 ± 0.0089 | 1.21 ± 0.016 |
| B3KVZ3 and related entries (UniProt Q9H3R5) | 0.995 ± 0.016 | 1.04 ± 0.041 | 0.9738 ± 0.0075 | 1.03 ± 0.11 | 1.01 ± 0.045 | 1.04 ± 0.14 |
| C9JUL4 and related entries (UniProt Q9UDY4) | 0.973 ± 0.038 | 0.94 ± 0.041 | 0.966 ± 0.016 | 0.988 ± 0.04 | 0.974 ± 0.014 | 0.96914 ± 0.00066 |
| B7ZBM8 and related entries (UniProt O14662) | 0.982 ± 0.057 | 1.04 ± 0.036 | 0.998 ± 0.041 | 0.997 ± 0.041 | 0.969 ± 0.021 | 1.01 ± 0.019 |
| A8MX75 and related entries (UniProt P18074) | 0.981 ± 0.039 | 0.923 ± 0.084 | 1 ± 0.038 | 0.969 ± 0.042 | 1 ± 0.027 | 0.926 ± 0.023 |
| E5RGX5 and related entries (UniProt Q93045) | 1.03 ± 0.058 | 1.03 ± 0.036 | 0.926 ± 0.11 | 0.894 ± 0.024 | 0.857 ± 0.038 | 0.86 ± 0.11 |
| A6PW57 and related entries (UniProt Q99755) | 1.07 ± 0.026 | 1.04 ± 0.12 | 1.11 ± 0.067 | 1.14 ± 0.047 | 1.16 ± 0.051 | 1.12 ± 0.03 |
| B1AMW1 and related entries (UniProt P19256) | 0.974 ± 0.023 | 1.04 ± 0.023 | 0.9948 ± 0.0026 | 1.03 ± 0.059 | 1.005 ± 0.0083 | 1.01 ± 0.044 |
| B1AQ74 and related entries (UniProt Q6NSI4) | 1 ± 0.023 | 0.9725 ± 0.0079 | 0.96 ± 0.016 | 0.984 ± 0.022 | 0.9844 ± 0.0049 | 0.9572 ± 0.0048 |
| D6RFW1 and related entries (UniProt Q96EQ0) | 0.9975 ± 0.0065 | 1.07 ± 0.073 | 0.998 ± 0.063 | 0.993 ± 0.02 | 0.956 ± 0.014 | 0.955 ± 0.038 |

Looked up above:
NP40-soluble protein abundance (concentration: 4mM), D6RA71 and related entries (UniProt P78317) reads 1.03 ± 0.044
NP40-soluble protein abundance (concentration: 2mM), C9JUL4 and related entries (UniProt Q9UDY4) reads 0.94 ± 0.041

Further entries follow.

| Target | NP40-soluble protein abundance (concentration: 1mM) | NP40-soluble protein abundance (concentration: 2mM) | NP40-soluble protein abundance (concentration: 4mM) | NP40-soluble protein abundance (concentration: 6mM) | NP40-soluble protein abundance (concentration: 8mM) | NP40-soluble protein abundance (concentration: 10mM) |
| --- | --- | --- | --- | --- | --- | --- |
| A8MUM1 and related entries (UniProt Q53HC9) | 0.9889 ± 0.0068 | 0.923 ± 0.098 | 0.931 ± 0.038 | 0.926 ± 0.039 | 0.93 ± 0.043 | 0.877 ± 0.048 |
| D3DSM0 and related entries (UniProt P05107) | 1.01 ± 0.05 | 1.08 ± 0.073 | 1.01 ± 0.043 | 0.973 ± 0.019 | 0.961 ± 0.025 | 0.981 ± 0.04 |
| UniProt B7ZLF3 | 1.03 ± 0.097 | 1.03 ± 0.036 | 0.998 ± 0.068 | 1.01 ± 0.029 | 1.05 ± 0.055 | 1.07 ± 0.046 |
| B0QY89 and related entries (UniProt Q9Y262) | 1 ± 0.031 | 0.976 ± 0.095 | 1.03 ± 0.12 | 1.12 ± 0.12 | 1.22 ± 0.17 | 1.24 ± 0.25 |
| C9JYN0 and related entries (UniProt Q16563) | 1.01 ± 0.015 | 1.06 ± 0.12 | 1.05 ± 0.042 | 1.12 ± 0.12 | 1.12 ± 0.057 | 1.14 ± 0.17 |
| C9JFE4 and related entries (UniProt Q13098) | 0.964 ± 0.03 | 0.961 ± 0.029 | 0.985 ± 0.065 | 1.1 ± 0.13 | 1.11 ± 0.075 | 1.11 ± 0.11 |
| B3KR61 and related entries (UniProt Q5TEU4) | 1.09 ± 0.097 | 1.1 ± 0.093 | 1.04 ± 0.028 | 1.02 ± 0.1 | 1.02 ± 0.083 | 1.06 ± 0.07 |
| D6RAN4 and related entries (UniProt P32969) | 1.02 ± 0.023 | 1.01 ± 0.079 | 0.974 ± 0.077 | 0.951 ± 0.063 | 0.885 ± 0.12 | 1.012 ± 0.01 |
| B4DDG0 and related entries (UniProt P41732+B4E171+B4DDG0) | 0.949 ± 0.013 | 1 ± 0.092 | 0.9607 ± 0.0023 | 0.9534 ± 0.0021 | 0.907 ± 0.014 | 0.944 ± 0.049 |
| D6RG18 and related entries (UniProt P51946) | 1.07 ± 0.077 | 1.04 ± 0.022 | 1.04 ± 0.053 | 1.04 ± 0.018 | 1.07 ± 0.049 | 1.07 ± 0.018 |
| CNOT1 (UniProt A5YKK6) | 0.96 ± 0.018 | 0.973 ± 0.035 | 1.04 ± 0.061 | 1.06 ± 0.11 | 1.08 ± 0.15 | 1.09 ± 0.16 |
| C9J5X1 and related entries (UniProt P08069) | 0.999 ± 0.02 | 1.01 ± 0.044 | 0.997 ± 0.044 | 0.993 ± 0.029 | 0.973 ± 0.023 | 0.9879 ± 0.0068 |
| A9X3U0 and related entries (UniProt Q96GF1) | 1.02 ± 0.03 | 1.01 ± 0.046 | 0.971 ± 0.027 | 0.973 ± 0.048 | 0.974 ± 0.035 | 0.972 ± 0.054 |
| C9JLU1 and related entries (UniProt P52434) | 0.95 ± 0.026 | 0.887 ± 0.065 | 0.937 ± 0.031 | 0.956 ± 0.062 | 0.999 ± 0.034 | 0.948 ± 0.037 |
| A8MYT4 and related entries (UniProt Q8NEB9) | 0.995 ± 0.019 | 0.931 ± 0.099 | 0.989 ± 0.044 | 0.93 ± 0.048 | 0.937 ± 0.039 | 0.906 ± 0.04 |
